No constants are given. Whether binding was seen depends on the method and setting. In cells and extracts the contact can be indirect. Some entries that bind do so weakly or less than the wild type. For some of these results: Sequences can lack the tags named with a protein.
What was measured:
Assay in all cases: co-IP; HEK293T cells co-transfected with SynDIG (or IFITM3) and HA-tagged μAP subunit; lysate on α-HA magnetic beads for 90 min at RT; myc-tagged protein detected by immunoblot; values normalised to eluted μ protein and to input
HA-tagged μ2 AP subunit = HA-tagged μ2 AP subunit (UniProt Q96CW1)
HA-tagged μ1a AP subunit = biological target: T1, HA-tagged μ1a AP subunit (UniProt Q9BXS5)
T1 sequence: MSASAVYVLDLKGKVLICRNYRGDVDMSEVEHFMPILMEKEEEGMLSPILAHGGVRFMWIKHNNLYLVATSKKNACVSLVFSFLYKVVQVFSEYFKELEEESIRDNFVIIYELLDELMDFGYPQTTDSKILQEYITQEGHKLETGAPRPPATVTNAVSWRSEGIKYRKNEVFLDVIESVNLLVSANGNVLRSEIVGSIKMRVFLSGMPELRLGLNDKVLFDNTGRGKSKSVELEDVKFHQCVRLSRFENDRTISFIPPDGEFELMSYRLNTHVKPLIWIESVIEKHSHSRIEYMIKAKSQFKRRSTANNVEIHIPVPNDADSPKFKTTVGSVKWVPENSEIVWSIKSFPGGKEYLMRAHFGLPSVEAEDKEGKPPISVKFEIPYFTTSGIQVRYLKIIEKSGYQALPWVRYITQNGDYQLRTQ

Amino acid sequences for entries named in this document (tags omitted). A change or cut given only in a name is not applied to a line headed by its entry. Chains listed by the source or under a name are the forms on record and can include a tag or linker.
UniProt Q96CW1: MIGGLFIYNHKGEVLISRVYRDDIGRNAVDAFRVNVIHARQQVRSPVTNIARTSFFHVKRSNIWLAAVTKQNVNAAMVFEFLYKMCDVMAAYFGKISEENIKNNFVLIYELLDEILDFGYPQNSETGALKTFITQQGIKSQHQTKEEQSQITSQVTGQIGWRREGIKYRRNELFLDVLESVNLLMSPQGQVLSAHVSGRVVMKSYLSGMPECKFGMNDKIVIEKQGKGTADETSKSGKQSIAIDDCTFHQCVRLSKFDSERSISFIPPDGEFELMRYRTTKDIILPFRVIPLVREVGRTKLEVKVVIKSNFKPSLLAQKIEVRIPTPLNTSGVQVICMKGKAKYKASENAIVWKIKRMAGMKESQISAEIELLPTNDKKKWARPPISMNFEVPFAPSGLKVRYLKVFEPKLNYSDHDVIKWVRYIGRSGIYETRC
UniProt Q6MG82: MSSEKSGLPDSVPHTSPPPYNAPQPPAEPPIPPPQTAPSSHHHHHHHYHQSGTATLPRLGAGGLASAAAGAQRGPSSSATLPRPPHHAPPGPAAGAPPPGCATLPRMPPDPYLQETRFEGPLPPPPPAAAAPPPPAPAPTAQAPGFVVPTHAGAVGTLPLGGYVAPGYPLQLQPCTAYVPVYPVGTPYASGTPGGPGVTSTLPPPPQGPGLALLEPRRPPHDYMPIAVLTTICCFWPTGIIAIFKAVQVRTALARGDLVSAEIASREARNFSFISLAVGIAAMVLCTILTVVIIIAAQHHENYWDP
SynDIG4 mutant 178-AVPA-181 (Q6MG82, form named): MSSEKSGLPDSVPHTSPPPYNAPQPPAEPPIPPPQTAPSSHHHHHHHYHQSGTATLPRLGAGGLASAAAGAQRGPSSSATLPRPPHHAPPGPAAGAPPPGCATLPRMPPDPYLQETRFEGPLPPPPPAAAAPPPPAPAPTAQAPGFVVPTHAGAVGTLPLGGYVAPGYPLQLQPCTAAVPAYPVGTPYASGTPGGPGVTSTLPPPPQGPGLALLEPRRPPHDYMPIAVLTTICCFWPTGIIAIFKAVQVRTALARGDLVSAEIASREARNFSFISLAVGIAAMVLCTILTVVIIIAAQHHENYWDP
SynDIG4 mutant 223-AMPA-226 (Q6MG82, form named): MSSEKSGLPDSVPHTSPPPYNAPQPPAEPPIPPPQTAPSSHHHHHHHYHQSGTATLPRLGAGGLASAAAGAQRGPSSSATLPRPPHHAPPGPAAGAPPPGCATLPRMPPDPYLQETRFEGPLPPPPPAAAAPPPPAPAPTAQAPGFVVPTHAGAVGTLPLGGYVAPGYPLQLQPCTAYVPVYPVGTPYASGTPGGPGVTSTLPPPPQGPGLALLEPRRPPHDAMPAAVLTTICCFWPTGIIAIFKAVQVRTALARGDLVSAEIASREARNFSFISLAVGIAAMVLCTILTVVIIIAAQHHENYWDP
UniProt A2ANU3: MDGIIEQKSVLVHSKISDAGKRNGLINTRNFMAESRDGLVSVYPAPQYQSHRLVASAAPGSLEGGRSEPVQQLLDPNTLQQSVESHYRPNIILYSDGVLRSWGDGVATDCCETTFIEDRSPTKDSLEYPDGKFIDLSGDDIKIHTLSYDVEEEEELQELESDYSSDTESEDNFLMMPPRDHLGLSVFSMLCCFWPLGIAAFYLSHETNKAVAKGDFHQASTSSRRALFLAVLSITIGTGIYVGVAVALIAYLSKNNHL
myc-SynDIG1∆161–72 (A2ANU3, form named): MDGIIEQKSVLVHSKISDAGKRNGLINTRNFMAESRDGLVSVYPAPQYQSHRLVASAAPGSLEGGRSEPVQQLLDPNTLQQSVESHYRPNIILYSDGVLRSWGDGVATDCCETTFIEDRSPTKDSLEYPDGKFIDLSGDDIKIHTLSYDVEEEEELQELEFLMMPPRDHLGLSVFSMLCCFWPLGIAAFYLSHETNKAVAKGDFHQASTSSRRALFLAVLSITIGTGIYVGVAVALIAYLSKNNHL
myc-SynDIG1∆161–76 (A2ANU3, form named): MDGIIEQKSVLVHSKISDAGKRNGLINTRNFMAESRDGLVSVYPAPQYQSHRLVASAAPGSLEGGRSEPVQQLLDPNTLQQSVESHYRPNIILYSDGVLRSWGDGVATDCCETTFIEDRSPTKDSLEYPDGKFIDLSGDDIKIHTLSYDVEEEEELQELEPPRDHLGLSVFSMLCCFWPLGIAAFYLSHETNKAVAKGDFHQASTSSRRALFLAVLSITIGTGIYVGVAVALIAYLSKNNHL
UniProt Q01628: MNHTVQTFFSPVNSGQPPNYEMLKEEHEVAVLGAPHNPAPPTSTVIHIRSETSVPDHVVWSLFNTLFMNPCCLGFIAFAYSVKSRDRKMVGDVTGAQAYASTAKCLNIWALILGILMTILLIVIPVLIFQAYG

HA-tagged μ4 AP subunit = biological target: T2, HA-tagged μ4 AP subunit (UniProt O00189)
T2 sequence: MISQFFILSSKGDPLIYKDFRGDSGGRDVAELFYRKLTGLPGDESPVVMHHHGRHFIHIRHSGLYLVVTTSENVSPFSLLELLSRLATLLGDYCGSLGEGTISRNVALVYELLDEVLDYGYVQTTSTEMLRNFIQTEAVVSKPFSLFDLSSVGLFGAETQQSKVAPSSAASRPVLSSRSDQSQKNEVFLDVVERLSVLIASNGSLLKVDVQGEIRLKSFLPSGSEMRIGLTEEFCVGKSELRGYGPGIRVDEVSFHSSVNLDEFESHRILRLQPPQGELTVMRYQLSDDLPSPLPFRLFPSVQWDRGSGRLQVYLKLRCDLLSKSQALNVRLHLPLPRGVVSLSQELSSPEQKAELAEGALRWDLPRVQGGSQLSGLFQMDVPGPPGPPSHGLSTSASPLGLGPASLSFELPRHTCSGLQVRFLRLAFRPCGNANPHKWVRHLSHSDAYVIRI

HA-tagged μ3a AP subunit = biological target: T3, HA-tagged μ3a AP subunit (UniProt Q9Y2T2)
T3 sequence: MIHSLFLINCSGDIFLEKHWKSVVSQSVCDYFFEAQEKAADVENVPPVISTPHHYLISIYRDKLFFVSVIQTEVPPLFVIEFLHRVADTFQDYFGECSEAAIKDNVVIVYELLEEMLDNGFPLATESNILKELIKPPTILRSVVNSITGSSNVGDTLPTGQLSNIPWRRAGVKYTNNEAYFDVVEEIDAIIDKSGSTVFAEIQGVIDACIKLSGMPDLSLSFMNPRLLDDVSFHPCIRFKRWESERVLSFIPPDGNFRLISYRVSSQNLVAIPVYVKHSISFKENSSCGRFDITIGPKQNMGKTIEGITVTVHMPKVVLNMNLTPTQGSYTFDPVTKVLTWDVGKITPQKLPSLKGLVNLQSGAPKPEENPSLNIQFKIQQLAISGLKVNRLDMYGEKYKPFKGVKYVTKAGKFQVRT

Row | Substance | binding (HA-tagged μ2 AP subunit) | binding (HA-tagged μ1a AP subunit) | binding (HA-tagged μ4 AP subunit) | binding (HA-tagged μ3a AP subunit)
1 | SynDIG4 mutant 178-AVPA-181 (from UniProt Q6MG82 1-306) | binds |  |  | 
2 | SynDIG4 mutant 223-AMPA-226 (from UniProt Q6MG82 1-306) | binds |  |  | 
3 | myc-SynDIG1∆161–72 (from UniProt A2ANU3 1-258) | binds |  |  | 
4 | myc-SynDIG1∆161–76 (from UniProt A2ANU3 1-258) |  | binds |  | 
5 | myc-hIFITM3 (from UniProt Q01628 1-133) | binds | binds weakly | binds weakly | 
6 | myc-tagged SynDIG1 (wild type) (from UniProt A2ANU3 1-258) | binds | binds |  | 
7 | myc-tagged SynDIG4 (wild type) (from UniProt Q6MG82 1-306) | binds | binds | binds | binds
